# In the supplement of paper PMC8728848:
# This is one part of the list.
# B1: PX9961W-pdi-543-27-543 (Parabacteroides distasonis) (protein)
# chain: EGNATTTSYFLNDQQAIDAIDGLYERFHQEGCYGRELFWEQGAACDIVWGRTRGYNSLATLAYTGDESPLRDVFSRMYSTMSRANWIIQELVKKEKGTTLTAVEKRSLGEAYFSRGWAHYLIAYRYGTDKQGVPFVRYEDFPDDYDNSIPPQQATVMDNYKLIIEDMDKAIAYLPIFESYDADNRGRAHQAAAVAFKAKTYAYWATWDATQWNNVIEMVNQLENNYNRDLAPTFAELFSSDLKDYWNAEYLWTIPSIGGALPGGTEFPGIILENKGWGKYNGWGQMKPSYDIYEEMAKDGKGNDRLVRSILEYNQEFPFFGETRKFWSTSDLEAGFMINKYMDAFKYSDPVGEGAVSANGDWPTVRVNFPIIRFAEMLLFRAEAYLMTGQADKATADINRIRLRSNLTPLTGTATMKDLYHERRCELAFEFTDHLFDLKRWNRSSNADIKTLADKELNAHPRIRRYEDRANPESAFTIIGYEDYTNKNAYQAHMMVFPYPSEEITKSNGQLKQNEGY
# Assays:
# Assay in all cases: glycan array binding signal (z-score within array); higher = stronger binding
# Settings in all cases: glycan notation: IUPAC condensed, linker removed
# [1] = target: Man(a1-2)Man(a1-3)[Man(a1-2)Man(a1-6)]Man(a1-6)[Man(a1-2)Man(a1-2)Man(a1-3)]Man
# Summary of the method: (§1)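 From the Consortium for Functional Glycomics database, 3228 arrays were curated, keeping only those whose protein sequence was available. Binding is given as a within-array Z-score averaged across arrays sharing a protein sequence and across linkers. Negative Z-scores can be read as non-binding.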
# [2] = target: Man(a1-2)Man(a1-3)[Man(a1-2)Man(a1-6)]Man(a1-6)[Man(a1-2)Man(a1-2)Man(a1-3)]Man(b1-4)GlcNAc(b1-4)GlcNAc
# Summary of the method: as §1
# [3] = target: Man(a1-2)Man(a1-3)[Man(a1-6)]Man(a1-6)[Man(a1-2)Man(a1-3)]Man(b1-4)GlcNAc(b1-4)GlcNAc
# Summary of the method: as §1
# [4] = target: Man(a1-2)Man(a1-6)[Man(a1-3)]Man(a1-6)[Man(a1-2)Man(a1-2)Man(a1-3)]Man
# Summary of the method: as §1
# [5] = target: Man(a1-2)Man(a1-6)[Man(a1-3)]Man(a1-6)[Man(a1-2)Man(a1-2)Man(a1-3)]Man(b1-4)GlcNAc(b1-4)GlcNAc
# Summary of the method: as §1
# Man(a1-3)[Man(a1-6)]Man = target: Man(a1-3)[Man(a1-6)]Man
# Summary of the method: as §1
# [6] = target: Man(a1-3)[Man(a1-6)]Man(a1-6)[Man(a1-2)Man(a1-3)]Man(b1-4)GlcNAc(b1-4)GlcNAc
# Summary of the method: as §1
# [7] = target: Man(a1-3)[Man(a1-6)]Man(a1-6)[Man(a1-3)]Man
# Summary of the method: as §1
# [8] = target: Man(a1-3)[Man(a1-6)]Man(a1-6)[Man(a1-3)]Man(b1-4)GlcNAc(b1-4)GlcNAc
# Summary of the method: as §1
# [9] = target: Man(a1-3)[Man(a1-6)]Man(b1-4)GlcNAc(b1-4)GlcNAc
# Summary of the method: as §1
# [10] = target: Man(a1-3)[Man(a1-6)]Man(b1-4)GlcNAc(b1-4)[Fuc(a1-6)]GlcNAc
# Summary of the method: as §1
# Man(a1-6)Man = target: Man(a1-6)Man
# Summary of the method: as §1
# Man(b1-4)GlcNAc = target: Man(b1-4)GlcNAc
# Summary of the method: as §1
# MurNAc(b1-4)GlcNAc = target: MurNAc(b1-4)GlcNAc
# Summary of the method: as §1
# Neu5Ac(a2-3)Gal = target: Neu5Ac(a2-3)Gal
# Summary of the method: as §1
# [11] = target: Neu5Ac(a2-3)Gal(b1-3)GalNAc
# Summary of the method: as §1
# [12] = target: Neu5Ac(a2-3)Gal(b1-3)GalNAc(b1-3)Gal(a1-4)Gal(b1-4)Glc
# Summary of the method: as §1
# [13] = target: Neu5Ac(a2-3)Gal(b1-3)GalNAc(b1-4)[Neu5Ac(a2-3)]Gal(b1-4)Glc
# Summary of the method: as §1
# [14] = target: Neu5Ac(a2-3)Gal(b1-3)GalNAc(b1-4)[Neu5Ac(a2-8)Neu5Ac(a2-3)]Gal(b1-4)Glc
# Summary of the method: as §1
# [15] = target: Neu5Ac(a2-3)Gal(b1-3)GalNAc6S
# Summary of the method: as §1
# [16] = target: Neu5Ac(a2-3)Gal(b1-3)GlcNAc
# Summary of the method: as §1
# [17] = target: Neu5Ac(a2-3)Gal(b1-3)GlcNAc(b1-2)Man
# Summary of the method: as §1
# [18] = target: Neu5Ac(a2-3)Gal(b1-3)GlcNAc(b1-2)Man(a1-3)[GlcNAc(b1-4)][Neu5Ac(a2-3)Gal(b1-3)GlcNAc(b1-2)Man(a1-6)]Man(b1-4)GlcNAc(b1-4)GlcNAc
# Summary of the method: as §1
# [19] = target: Neu5Ac(a2-3)Gal(b1-3)GlcNAc(b1-2)Man(a1-3)[Neu5Ac(a2-3)Gal(b1-3)GlcNAc(b1-2)Man(a1-6)]Man(b1-4)GlcNAc(b1-4)GlcNAc
# Summary of the method: as §1
# [20] = target: Neu5Ac(a2-3)Gal(b1-3)GlcNAc(b1-3)Gal(b1-3)GlcNAc
# Summary of the method: as §1
# [21] = target: Neu5Ac(a2-3)Gal(b1-3)GlcNAc(b1-3)Gal(b1-4)GlcNAc
# Summary of the method: as §1
# [22] = target: Neu5Ac(a2-3)Gal(b1-3)GlcNAc(b1-3)GalNAc
# Summary of the method: as §1
# [23] = target: Neu5Ac(a2-3)Gal(b1-3)GlcNAc(b1-4)Gal(b1-4)Glc
# Summary of the method: as §1
# [24] = target: Neu5Ac(a2-3)Gal(b1-3)GlcNAc(b1-6)GalNAc
# Summary of the method: as §1
# [25] = target: Neu5Ac(a2-3)Gal(b1-3)GlcNAc6S
# Summary of the method: as §1
# [26] = target: Neu5Ac(a2-3)Gal(b1-3)[Fuc(a1-4)]GlcNAc
# Summary of the method: as §1
# [27] = target: Neu5Ac(a2-3)Gal(b1-3)[Fuc(a1-4)]GlcNAc(b1-3)Gal(b1-3)[Fuc(a1-4)]GlcNAc
# Summary of the method: as §1
# [28] = target: Neu5Ac(a2-3)Gal(b1-3)[Fuc(a1-4)]GlcNAc(b1-3)Gal(b1-4)[Fuc(a1-3)]GlcNAc
# Summary of the method: as §1
# [29] = target: Neu5Ac(a2-3)Gal(b1-3)[GlcNAc(b1-6)]GalNAc
# Summary of the method: as §1
# [30] = target: Neu5Ac(a2-3)Gal(b1-3)[Neu5Ac(a2-6)]GalNAc
# Summary of the method: as §1
# [31] = target: Neu5Ac(a2-3)Gal(b1-3)[Neu5Ac(a2-6)]GlcNAc(b1-3)[Fuc(a1-3)[Gal(b1-4)]GlcNAc(b1-6)]Gal(b1-4)Glc
# Summary of the method: as §1
# [32] = target: Neu5Ac(a2-3)Gal(b1-3)]Neu5Ac(a2-3)Gal(b1-4)]GlcNAc
# Summary of the method: as §1
binder,measurement,setting,value
B1,glycan array binding signal (z-score),[1],0.3
same,glycan array binding signal (z-score),[2],-0.01
same,glycan array binding signal (z-score),[3],-1.56
same,glycan array binding signal (z-score),[4],-0.515
same,glycan array binding signal (z-score),[5],-1.01
same,glycan array binding signal (z-score),Man(a1-3)[Man(a1-6)]Man,-0.646
same,glycan array binding signal (z-score),[6],-0.521
same,glycan array binding signal (z-score),[7],1.43
same,glycan array binding signal (z-score),[8],0.256
same,glycan array binding signal (z-score),[9],-0.411
same,glycan array binding signal (z-score),[10],0.622
same,glycan array binding signal (z-score),Man(a1-6)Man,0.415
same,glycan array binding signal (z-score),Man(b1-4)GlcNAc,1.32
same,glycan array binding signal (z-score),MurNAc(b1-4)GlcNAc,-0.849
same,glycan array binding signal (z-score),Neu5Ac(a2-3)Gal,-0.416
same,glycan array binding signal (z-score),[11],-0.431
same,glycan array binding signal (z-score),[12],-0.228
same,glycan array binding signal (z-score),[13],-0.921
same,glycan array binding signal (z-score),[14],-0.589
same,glycan array binding signal (z-score),[15],0.824
same,glycan array binding signal (z-score),[16],-0.608
same,glycan array binding signal (z-score),[17],0.217
same,glycan array binding signal (z-score),[18],-0.555
same,glycan array binding signal (z-score),[19],1.17
same,glycan array binding signal (z-score),[20],-1.56
same,glycan array binding signal (z-score),[21],0.058
same,glycan array binding signal (z-score),[22],0.311
same,glycan array binding signal (z-score),[23],-0.533
same,glycan array binding signal (z-score),[24],0.654
same,glycan array binding signal (z-score),[25],0.968
same,glycan array binding signal (z-score),[26],-0.779
same,glycan array binding signal (z-score),[27],2.45
same,glycan array binding signal (z-score),[28],1.28
same,glycan array binding signal (z-score),[29],-0.924
same,glycan array binding signal (z-score),[30],-1.05
same,glycan array binding signal (z-score),[31],-0.292
same,glycan array binding signal (z-score),[32],-1.15

# 2 records drawn at random from those above:
binder,measurement,setting,value
B1,glycan array binding signal (z-score),[13],-0.921
same,glycan array binding signal (z-score),[9],-0.411
